The list shows a part of the results. The main result of the screen is listed elsewhere. These columns were measured beside it and carry no call. Compounds called inactive in the main read-out are mostly missing here. The note in brackets gives the kind of curve behind each potency; many fits are weak.
Assay: qHTS Assay for Lipid Storage Modulators in Drosophila S3 Cells;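 on cell number change: cells counted by Cell Tracker Red CMTPX staining in the red channel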
Settings: BODIPY lipid droplet fluorescence, 18-24 h; for cell number change: measured here: cell count max response, cells fed with added oleic acid
Procedure, shortened: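 Drosophila S3 cells got compounds at several concentrations plus oleic acid (400 uM solution). Laser-scanning cytometry with 488 nm excitation read lipid droplets at 500-530 nm and cells at 575-640 nm. Percent activity was relative to 20 uM Triacsin C.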

[1] = measured here: cell number channel AC50, cells fed with added oleic acid
[2] = measured here: lipid fluorescence (Fed channel) AC50, cells fed with added oleic acid

Compound | cell number change | AC50 [1] | AC50 [2]
Cc1nc(-c2cccc3ccccc23)ccc1C(=O)O | -13.4% | 1.84 µM [falling, partial curve, poor fit] | 32.6 µM [falling, single point]
O=C(Cn1cnc2sc(-c3ccccc3)cc2c1=O)NCc1ccco1 |  | 6.51 µM [rising, single point] | 
CCOc1cc(NC(=O)c2ccco2)c(OCC)cc1NC(=O)Cc1ccc(OC)c(OC)c1 | -32.5% | 20.6 µM [falling, single point] | 
O=C(CSc1ccccc1C(=O)O)NCc1ccc(Cl)cc1 | -21.8% | 0.0058 µM [falling, full curve, poor fit] | 16.4 µM [falling, single point]
CCc1cccc(CC)c1NC(=O)CNCc1cccs1 | -2.42% |  | 20.6 µM [rising, single point]
CCn1cc(C(=O)NCc2ccccc2F)c(=O)c2ccc(C)nc21 | 6.02% |  | 2.91 µM [falling, partial curve]
O=C1Nc2ccccc2/C1=N/c1sc2c(c1C(=O)NCCc1ccccc1)CCCC2 | -29.7% |  | 14.6 µM [falling, single point]
COc1cc2ncnc(NCCc3ccccc3)c2cc1OC | -19.5% |  | 18.4 µM [falling, single point]
Cc1ccc(C(=O)Nc2cc3[nH]c(=O)oc3cc2C)cc1 | 20.8% |  | 29.1 µM [rising, partial curve, poor fit]
O=C(O)c1cc(-c2ccncc2)nc2ccc(S(=O)(=O)N3CCOCC3)cc12 | 2.37% | 0.058 µM [falling, full curve, poor fit] | 
O=C(c1cc2cc(Br)cc(Br)c2oc1=O)N1CCOCC1 | 26.4% |  | 1.3 µM [falling, full curve]
COc1ccc(-n2c(C)cc(C(=O)CN3C(=O)C(=O)N(Cc4ccccc4)C3=O)c2C)cc1 | -0.488% |  | 7.31 µM [rising, partial curve]
CSc1ccccc1-n1nnnc1SCC(=O)Nc1cc(C)ccc1C | 14.6% | 0.13 µM [rising, full curve] | 0.366 µM [rising, full curve, poor fit]
O=C(c1ccco1)N1CCN(c2ncnc3c2oc2ccccc23)CC1 | 42.2% | 0.517 µM [rising, full curve] | 1.84 µM [rising, partial curve]
C[C@H](NC(=O)OC(C)(C)C)c1nnc(SCC(N)=O)o1 | -10.9% |  | 0.164 µM [falling, full curve, poor fit]
Cc1ccc(CN2CCN(/N=C/c3cccn3C)CC2)c(C)c1 | 27.1% |  | 
Cc1c(C(=O)N/N=C/c2ccccc2)[nH]c2ccc(Cl)cc12 | -18.5% |  | 23.1 µM [falling, single point]
Cc1nc(Cl)sc1C(=O)Nc1ccccc1 | 15.4% |  | 1.3 µM [rising, full curve, poor fit]
CC(C)CNc1nc(N)c([N+](=O)[O-])c(NCc2ccccc2)n1 | -5.41% |  | 5.8 µM [falling, full curve]

Looked up above:
cell number change with `Cc1ccc(CN2CCN(/N=C/c3cccn3C)CC2)c(C)c1` reads 27.1%
AC50 [2] with `CSc1ccccc1-n1nnnc1SCC(=O)Nc1cc(C)ccc1C` reads 0.366 µM [rising, full curve, poor fit]
cell number change with `O=C1Nc2ccccc2/C1=N/c1sc2c(c1C(=O)NCCc1ccccc1)CCCC2` reads -29.7%

(further entries)

Compound | cell number change | AC50 [1] | AC50 [2]
Oc1ccccc1-c1cncn1Cc1ccccc1 | 27.6% |  | 1.03 µM [rising, full curve, poor fit]
O=C(NC1CCC(NC(=O)C(F)(F)C(F)F)CC1)C(F)(F)C(F)F (stereo not given) | -9.03% |  | 2.31 µM [falling, full curve, poor fit]
O=c1[nH]c(=O)n(Cc2ccco2)c2c1C(C(F)(F)F)(C(F)(F)F)N=C(CCC1CCCCC1)N2 | -55.6% | 18.4 µM [falling, single point] | 25.9 µM [falling, single point]
Cc1c(/C=N\NC(=O)c2ccc([N+](=O)[O-])cc2)cnn1C | -36.2% | 5.17 µM [falling, full curve] | 0.0326 µM [falling, full curve]
Cc1cc(C)cc(NC(=O)C2C3C=CC4(O3)C2C(=O)N(CCCN2CCCCC2)C4C(=O)NC2CCCCC2)c1 (stereo not given) | 19% |  | 2.91 µM [falling, partial curve]
O=C(Nc1cccc(F)c1)C1CCN(C(=O)c2ccc(Br)cc2)CC1 | 71.6% | 18.4 µM [rising, single point] | 
COc1ccc(CNC(=O)CCS(=O)(=O)c2cccc3nonc23)cc1 | 0.132% |  | 
O=C(OCC1CC(c2ccccc2)=NO1)c1ccco1 (stereo not given) | 0.645% |  | 0.00461 µM [falling, full curve, poor fit]
O=C(c1ccc2ccccc2c1)N1CCN(S(=O)(=O)/C=C/c2ccccc2)CC1 | -15.2% |  | 
CCc1cccc(NC(=O)C2CCN(S(=O)(=O)c3ccc4c(c3)CC(C)N4C(C)=O)CC2)c1 (stereo not given) | -23.4% |  | 
COc1ccc(NC(=O)NC2CCCc3ccccc32)cc1 (stereo not given) |  |  | 29.1 µM [rising, single point]
Cc1cccnc1NC(=O)CN1C(=O)COc2ccc(Cl)cc21 | 10.3% |  | 0.082 µM [rising, full curve, poor fit]
Cc1ccccc1N1CCN(CC(=O)Nc2nc(C)c(C(=O)N(C)C)s2)CC1 | -0.824% |  | 14.6 µM [rising, partial curve]
CC[n+]1c(/C=C/N(C)c2ccccc2)n(-c2ccccc2)c2ccc(-c3nc4ccccc4s3)cc21 | -27.5% | 0.082 µM [falling, full curve, poor fit] | 2.31 µM [falling, partial curve]
CCOC(=O)C1CCN(C(=O)c2ccc(N(C)S(C)(=O)=O)cc2)CC1 | 21.9% | 0.0651 µM [rising, full curve, poor fit] | 0.0651 µM [rising, full curve, poor fit]
COc1ccc(C(=O)c2cn(CC(=O)Nc3cc(OC)cc(OC)c3)c3ccc(OC)cc3c2=O)cc1 | 37.1% | 23.1 µM [rising, single point] | 23.1 µM [rising, partial curve]
[O-]/[N+](=C\C=C\c1ccccc1)c1ccccc1 | -17.5% |  | 3.66 µM [falling, full curve, poor fit]
COc1ccccc1NC(=O)COc1coc(CN2CCN(c3ccccc3)CC2)cc1=O |  | 1.46 µM [rising, full curve] | 
COc1ccc2cc3cc(C(=O)Nc4ccc5c(c4)OCCO5)oc3nc2c1 | -70.4% | 16.4 µM [falling, partial curve, poor fit] | 

Compound | cell number change | AC50 [1] | AC50 [2]
Cc1ccc(S(=O)(=O)N(Cc2nccn2C)C(C)C)cc1 | 3.84% |  | 29.1 µM [rising, single point]
COc1ccc2oc(C(=O)c3ccccc3)c(N)c2c1 | -35.2% | 0.291 µM [falling, full curve] | 
COc1ccc(C(=O)c2ccccc2Cl)cc1 |  |  | 0.326 µM [falling, partial curve, poor fit]
Cc1ccc2c(Cl)cc(Cl)c(OCC(=O)NC3CCS(=O)(=O)C3)c2n1 (stereo not given) |  |  | 0.00517 µM [falling, full curve, poor fit]
O=C(N/N=C/c1ccc2c(c1)OCO2)c1ccc2ccccc2n1 | 90.9% | 18.4 µM [rising, partial curve] | 14.6 µM [rising, partial curve]
O=c1cc(-c2ccccc2Cl)oc2c(NS(=O)(=O)c3cccs3)ccc(O)c12 | 9.84% |  | 0.92 µM [rising, full curve, poor fit]
CCCN(CCC)CCCNC(=O)C1c2cc(OC)c(OC)cc2C(=O)N(C)C1c1cccnc1 (stereo not given) | 11% | 3.66 µM [falling, single point] | 6.51 µM [falling, single point]
CSCCC(NS(=O)(=O)c1ccc(C)cc1)C(=O)Nc1ccc(C)cn1 (stereo not given) | -99.4% | 29.1 µM [falling, single point] | 4.11 µM [rising, partial curve]
CCn1c(CNC(=O)c2cccs2)n[nH]c1=S | 12.8% |  | 18.4 µM [rising, single point]
Cc1cc2oc(C(=O)N(Cc3ccco3)C3CCS(=O)(=O)C3)cc(=O)c2cc1Cl (stereo not given) |  | 0.461 µM [falling, single point] | 0.58 µM [falling, single point]
Cc1ccc(CNC(=O)C2CN(S(C)(=O)=O)c3cc(Cl)ccc3O2)cc1 (stereo not given) | -28.5% |  | 6.51 µM [falling, single point]
COc1ccc(-c2noc(-c3ccco3)n2)cc1OC | -16.6% |  | 0.00651 µM [rising, full curve, poor fit]
CN1C(=O)CC(N2CCN(c3ccc(Cl)c(Cl)c3)CC2)C1=O (stereo not given) |  |  | 6.51 µM [falling, single point]
CCCn1c(N)c(C(=O)CSc2nnc3n2CCCCC3)c(=O)[nH]c1=O | 16.6% |  | 9.2 µM [rising, partial curve, poor fit]
CCC(=O)N1CCN(c2ccc(NC(=O)c3ccc(C#N)cc3F)cc2Cl)CC1 | 3.73% | 3.26 µM [rising, partial curve] | 
CCc1ccc(-c2cc(C(=O)NN3CCOCC3)c3ccccc3n2)cc1 | 0.388% |  | 0.366 µM [rising, partial curve]
Cc1ccc(-n2nnnc2SCC(=O)Nc2ccccc2N2CCCCC2)cc1C | -27.4% |  | 16.4 µM [falling, partial curve]
COC(=O)c1cccc2c1-c1ccccc1/C2=N/O | -58.9% | 29.1 µM [falling, single point] | 18.4 µM [falling, single point]

— PubChem BioAssay AID2685 (National Center for Advancing Translational Sciences (NCATS), 2010)
